Experimental data taken from doi:10.1101/2025.01.26.634929.
Results are given in words; binding and its absence hold for the method and conditions named. Binding seen in cells or lysates may run through a third protein. Here binding means that the protein was enriched with, or labelled near, the bait; the list need not be complete.

Target: AGO1 fused with C-terminal Flag- and HA-epitope tags (e-AGO1) (human) (UniProt Q9UL18)
Test: affinity purification with mass spectrometry

B1: RBM14 (protein, UniProt Q96PK6 1-669)
chain: MKIFVGNVDGADTTPEELAALFAPYGTVMSCAVMKQFAFVHMRENAGALRAIEALHGHELRPGRALVVEMSRPRPLNTWKIFVGNVSAACTSQELRSLFERRGRVIECDVVKDYAFVHMEKEADAKAAIAQLNGKEVKGKRINVELSTKGQKKGPGLAVQSGDKTKKPGAGDTAFPGTGGFSATFDYQQAFGNSTGGFDGQARQPTPPFFGRDRSPLRRSPPRASYVAPLTAQPATYRAQPSVSLGAAYRAQPSASLGVGYRTQPMTAQAASYRAQPSVSLGAPYRGQLASPSSQSAAASSLGPYGGAQPSASALSSYGGQAAAASSLNSYGAQGSSLASYGNQPSSYGAQAASSYGVRAAASSYNTQGAASSLGSYGAQAASYGAQSAASSLAYGAQAASYNAQPSASYNAQSAPYAAQQAASYSSQPAAYVAQPATAAAYASQPAAYAAQATTPMAGSYGAQPVVQTQLNSYGAQASMGLSGSYGAQSAAAATGSYGAAAAYGAQPSATLAAPYRTQSSASLAASYAAQQHPQAAASYRGQPGNAYDGAGQPSAAYLSMSQGAVANANSTPPPYERTRLSPPRASYDDPYKKAVAMSKRYGSDRRLAELSDYRRLSESQLSFRRSPTKSSLDYRRLPDAHSDYARYSGSYNDYLRAAQMHSGYQRRM
Question: With B1 as the binder, how does the binding read?
Answer: The binding was “binds”.
